# Source: the supplement of paper PMC3334620
# In all, about 33,000 sequences were measured (“E-score (-0.5 to 0.5)”: median about -0.015, highest 2% from about 0.3 on). This is one part of the list.
# Target: T1, Abf1 (UniProt P14164)
# T1 sequence: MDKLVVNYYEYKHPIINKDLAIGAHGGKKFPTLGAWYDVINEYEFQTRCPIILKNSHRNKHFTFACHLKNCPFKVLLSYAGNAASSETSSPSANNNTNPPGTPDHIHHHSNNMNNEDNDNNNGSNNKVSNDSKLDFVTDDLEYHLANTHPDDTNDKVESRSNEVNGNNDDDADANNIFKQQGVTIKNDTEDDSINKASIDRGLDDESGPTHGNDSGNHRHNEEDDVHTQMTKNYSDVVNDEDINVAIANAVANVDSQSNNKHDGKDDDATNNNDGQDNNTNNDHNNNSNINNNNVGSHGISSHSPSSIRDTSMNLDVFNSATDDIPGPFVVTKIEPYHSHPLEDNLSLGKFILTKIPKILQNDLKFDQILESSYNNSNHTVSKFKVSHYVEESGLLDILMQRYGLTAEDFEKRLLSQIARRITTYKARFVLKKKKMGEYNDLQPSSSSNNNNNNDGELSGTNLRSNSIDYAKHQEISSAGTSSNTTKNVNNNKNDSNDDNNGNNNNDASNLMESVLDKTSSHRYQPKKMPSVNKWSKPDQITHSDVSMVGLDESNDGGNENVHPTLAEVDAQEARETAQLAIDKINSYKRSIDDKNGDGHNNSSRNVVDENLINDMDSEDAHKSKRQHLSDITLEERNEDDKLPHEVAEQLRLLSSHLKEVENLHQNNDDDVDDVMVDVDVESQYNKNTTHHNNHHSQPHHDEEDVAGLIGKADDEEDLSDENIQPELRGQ
# Test: PBM E-score (8-mer binding enrichment) (E-score (-0.5 to 0.5)); higher = stronger / more preferred TF binding
# Details: protein concentration: 200 nM; construct: GST-full length
# Outline: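 Bound GST-tagged yeast transcription factors, applied at about 100-200 nM to double-stranded universal all-10-mer Agilent arrays, were detected with fluorescent anti-GST. Scans were normalised with masliner. A modified Wilcoxon-Mann-Whitney statistic, the E-score, was assigned to each ungapped eight-base word pooled with its reverse complement by the Universal PBM Analysis Suite.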
row,Sequence,PBM E-score
1,AGATTCTC,-0.146
2,ATCACGAC,0.363
3,CGTATCAA,0.343
4,GCACTTGA,-0.047
5,AACAATAG,-0.149
6,CTGATCAG,0.0203
7,CACATGTC,0.0654
8,ACATAAGA,0.0752
9,ATTGTCGA,-0.0794
10,AATGCAGG,0.0257
11,TGATTCCA,-0.118
12,ACACCTTA,-0.0258
13,ATGCGCTC,-0.00982
14,AGGTTGGC,-0.102
15,GTGGCACA,-0.18
16,ATGCGCCG,-0.00069
17,CAGGAGCC,-0.235
18,AGTGCGCA,0.0615
19,ACTACGAT,0.146
20,CTGGTTCC,-0.0717
21,GCCGGCGC,-0.04
22,CTTTTTTC,0.0937
23,CCGATGAA,-0.101
24,TAGCCCGA,-0.0487
25,AGTGTACC,-0.0969

# Taken from the results shown (five entries):
row,Sequence,PBM E-score
11,TGATTCCA,-0.118
12,ACACCTTA,-0.0258
13,ATGCGCTC,-0.00982
14,AGGTTGGC,-0.102
15,GTGGCACA,-0.18

# Individual results from the entries so far.
# For PBM E-score, CCGATGAA is listed with -0.101
# For PBM E-score, ACATAAGA is listed with 0.0752

# Next part.

row,Sequence,PBM E-score
1,CACTTATG,0.0685
2,GACCCAGA,0.0297
3,CCCGAAGC,0.0369
4,TACTGCCA,-0.00789
5,AGAGTCCT,-0.0999
6,GATCCTGC,0.0793
7,ACCAGAGT,-0.31
8,CGCGGGAG,-0.207
9,TCTTCTCA,0.0808
10,ATTAAAAC,0.0586
11,GCGCCAAC,-0.0968
12,ACCGCGAT,0.0301
13,AGGCGATC,0.061
14,AAGATCCC,0.096
15,ATTACACA,0.166
16,GAGTTCAA,0.086
17,CCACATGC,-0.0677
18,GGATGAGA,-0.0398
19,CGTGGTGC,-0.278
20,ATTGGTGA,0.0539
21,GGGCGGCA,-0.347
22,CTGAATCC,-0.0583
23,ACTTAGGG,0.0866
24,AAAGATTG,0.0385
25,CGGTTTGC,-0.0918

row,Sequence,PBM E-score
1,CATGGTGC,-0.0453
2,GTCATTTA,0.313
3,AGCCTCAG,-0.161
4,AGGAATCG,0.0975
5,CCGAGCGG,-0.227
6,AAGTTTAG,0.0135
7,CACCGCGC,0.042
8,AGGGTTTG,-0.2
9,CGGTTTGA,-0.0256
10,ATTCTGAA,0.105
11,ATCACACG,0.281
12,CATCGTCC,0.137
13,GCGGCCGA,-0.0205
14,CAGGAGCA,-0.118
15,TAAATAGA,-0.0733
16,AGCGACTG,-0.0361
17,ACACAGCA,0.148
18,AAGACTGC,-0.209
19,AAATACCT,0.0896
20,CCTATTGC,-0.169
21,CGACCTGA,0.104
22,GATCCCAA,-0.0955
23,GCATGGGA,-0.115
24,AAATTCTC,0.00746
25,ACACTGGA,-0.0493

row,Sequence,PBM E-score
1,GCTGTATA,-0.105
2,AATCAGCG,0.0737
3,AACGCCGT,0.23
4,ACTAACTG,-0.0328
5,GACATACA,0.214
6,ACCCTCGG,-0.249
7,CATACTGA,-0.108
8,CATGAGGG,-0.0568
9,GCCAGAGA,-0.168
10,CATTTGTC,0.113
11,GTAGAGGA,-0.0589
12,AAGGAGGA,-0.14
13,GCCACTGA,-0.224
14,CCCTTGAG,-0.167
15,ATAACTTC,0.101
16,GAAGGTTA,-0.152
17,AACGTCTA,0.0493
18,GGAAAATA,0.0544
19,GAGCCTGA,-0.165
20,CCATAACG,-0.0564
21,ATTTCACG,0.254
22,AGACTAAG,0.0756
23,ATTGAATC,0.101
24,AGAGAAGG,-0.106
25,CGGAACCC,-0.0317

row,Sequence,PBM E-score
1,GAGCTTGA,-0.14
2,ACCTGCTA,-0.0706
3,AAGGTTTC,-0.0855
4,GCCTGGAC,-0.0911
5,AGTTGAGG,-0.116
6,ACTTATCC,0.11
7,ATGGCGGG,-0.0731
8,CGCTAGAA,-0.00445
9,CGAGAGGC,-0.29
10,ACCTACCA,-0.0533
11,AGGTCGCG,0.101
12,GCGTCTAA,-0.113
13,AAATACTC,0.00717
14,CGACTTCC,-0.109
15,GCGCTTAA,-0.0286
16,TCGTGGCA,0.187
17,CGGCAGCA,-0.108
18,AGACAAGG,-0.0217
19,GCCTTTCA,-0.01
20,GGAGTCAC,-0.0676
21,GTCCGCAA,-0.236
22,ATGGCAGG,-0.192
23,CGCAGCTC,-0.228
24,ACTATGAA,0.0687
25,ATGGGCGA,-0.148

row,Sequence,PBM E-score
1,CTCCTCAC,-0.0256
2,GTAGTCCA,-0.078
3,AAAGGGTC,0.12
4,AGGGCACG,-0.0317
5,GCTATCGA,0.0665
6,GCGCGGCA,-0.0336
7,TACCGTAA,0.112
8,TCAACACA,0.14
9,AGTCCAAT,0.0467
10,CTCAATAA,0.0635
11,CAAGCGAC,0.0372
12,GCTTAGCA,-0.123
13,ACTCATAG,-0.0845
14,CCTCGGAA,0.0529
15,CCTCGTGC,0.00335
16,GCACTAGA,-0.064
17,ATACGTTA,0.224
18,AACGATAG,0.265
19,CTAGCCCC,-0.26
20,ATCAGAGC,0.183
21,ATAGTCCC,0.00444
22,ATCCGGAA,0.0568
23,AACGACAC,0.238
24,ACATGGAT,-0.0566
25,AACTGCGT,-0.113

row,Sequence,PBM E-score
1,AAAATTAT,0.228
2,CATCTTTA,0.0861
3,ACCCTCTA,0.0207
4,ATCTTCAT,0.126
5,GATGAACA,0.0864
6,CTTGTTTC,-0.101
7,TTAACCAA,-0.117
8,GAAACGCA,-0.161
9,CTCAGGGC,-0.228
10,CTGCCTCC,-0.296
11,CACAGAAA,-0.0195
12,CCCAAGTC,-0.113
13,GACTATGA,0.0989
14,CGGCATAA,0.0361
15,CCTCTCAC,0.0361
16,CGTTGTGA,0.0465
17,AAAGGGGC,-0.191
18,TCCCTACA,-0.0464
19,AAGCCGGG,-0.0973
20,GTAGGAAC,0.0714
21,GAATACCA,0.0381
22,CTATGGAA,-0.0164
